# In PubChem BioAssay AID493014 (National Center for Advancing Translational Sciences (NCATS), 2011):
# Screen size: about 340,000 compounds; about 170 (0.05%) were called active. The inconclusive results got no clear call from the source; some entries with a clear call stand among them for comparison. Calls follow the shape of the dose curve; as a rule, active = well fitted inhibition curve with a large enough effect in the signal ratio, with a control signal flat (not every such curve was filed as active); inconclusive = small, poorly fitted or top-dose-only effect, or effect the other way, or a change in a side signal; inactive = flat fitted curve, though single readings scatter; the % refers to the signal ratio. Potencies of inconclusive entries are doubtful fits and often do not repeat.
# Test: qHTS Assay to Find Inhibitors of Chronic Active B-Cell Receptor Signaling;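 as to activity change, negative = inhibition: plate controls were basal doxycycline-induced cells for no effect and cells given 10 µM MG132 for full effect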
# Settings: ABC-DLBCL IkBa-CBG/CBR reporter, luminescence ratio (green luciferase fused to IkBa over red control in TMD8 lymphoma cells), 4 h; activity change, negative = inhibition: at 46.1 µM (top of the series)
# In short: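 TMD8 human ABC-DLBCL cells with doxycycline-inducible IκBα–green luciferase fusion and unfused red luciferase, in 0.5% FBS medium; compounds up to 46 uM, 4 h at 37C. Green/red luminescence ratio, filter-overlap corrected, fitted to concentration-response curves.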
# Potency is read from the fitted curve at half-maximal effect.
Compound,"activity change, negative = inhibition",Potency
Cc1csc2nc(SCC(=O)N3CCN(c4ccccc4)CC3)[nH]c(=O)c12,inconclusive: 7.25%,–
Cc1cccc(C)c1Nc1nnc(SCC(=O)c2ccc(Br)s2)s1,inconclusive: -0.353%,–
Cc1cccc(OCCCC(=O)Nc2ccc(Cl)c(S(=O)(=O)N3CCOCC3)c2)c1,inactive: -0.687%,–
CC1CCN(CCCOc2ccc(OCc3ccccc3)cc2)CC1,inactive: 0.907%,–
CC1(C)NC(=O)N(CCOCCOc2ccc3ccccc3c2Br)C1=O,–,"inconclusive: 0.116 µM [falling, full curve, poor fit]"
COc1ccccc1N1CCN(C(=O)c2ccc(-c3nc4ccccc4s3)o2)CC1,inconclusive: -2.34%,–
Cc1ccccc1N=C1Nc2ccccc2CS1,inconclusive: -0.438%,–
COc1ccc(CCCc2nnc(SCC(=O)Nc3cc(C)ccc3C)o2)cc1,–,"inconclusive: 16.4 µM [falling, partial curve, poor fit]"
CCc1ccc(-c2[nH]nc3nc(-c4ccc(OC)cc4)cc(C(=O)NCCCOC)c23)cc1,inconclusive: 7.49%,–
O=C(OCC(=O)N1CCOCC1)c1ccccc1SCC(=O)N1CCCC1,inconclusive: 3.15%,–
CC(Oc1ccccc1)C(=O)Nc1nnc(C2CCCCC2)s1 (configuration not stated),–,"inconclusive: 11.2 µM [rising, partial curve, poor fit]"
Cc1cc(C)c(S(=O)(=O)Cc2ccccc2)c(=O)[nH]1,inconclusive: 2.48%,–
O=C(CC1C(=O)NCCN1C/C=C/c1ccccc1)NCCc1cccnc1 (configuration not stated),inconclusive: 7.89%,–
COc1ccccc1NC(=O)CSc1nnnn1C1CCCC1,–,"inconclusive: 7.08 µM [falling, partial curve]"
Cc1c2c(nc3c(C)cccc13)OC(C)C2 (configuration not stated),–,"inconclusive: 17.8 µM [falling, single point]"
CCOC(=O)c1c(C(C#N)C#N)cc(C)nc1C,inconclusive: 3.66%,–
Cc1ccc(Cc2cnc(NC(=O)c3cccs3)s2)cc1,inconclusive: -1.12%,–
c1ccc(Nc2nc3ccccc3o2)cc1,–,"inconclusive: 20.6 µM [falling, single point]"
COc1cccc(-c2nc(N3CCC(C)CC3)c3ccccc3n2)c1O,inconclusive: 8.58%,–
COc1ccc(NC(=O)Cc2coc3cc(C)ccc23)cn1,–,"inconclusive: 10 µM [falling, partial curve, poor fit]"
CCCCOc1ccc(N=Nc2ccc(N)nc2N)cn1,inconclusive: 2.8%,–
COc1cccc(C(=O)NC(C)CCc2ccccc2)c1 (configuration not stated),–,"inconclusive: 11.2 µM [falling, partial curve, poor fit]"

# Two compounds drawn at random from the list so far:
Compound,"activity change, negative = inhibition",Potency
COc1cccc(C(=O)NC(C)CCc2ccccc2)c1 (configuration not stated),–,"inconclusive: 11.2 µM [falling, partial curve, poor fit]"
Cc1cccc(C)c1Nc1nnc(SCC(=O)c2ccc(Br)s2)s1,inconclusive: -0.353%,–
